The series in a line: general procedure: Boc solid-phase peptide synthesis; Boc-Val-PAM resin; DCC and HOBt. The note with it: whole synthesis, scale 3 x 0.5 mmol, acetate salt.

With N-Acetyl-Ser-Ser-Ser-Chg-Gln-Ser-Val-OH, the “crude HPLC purity” value is given as 96%.
